Paper doi:10.1101/2021.05.11.443692
No constants are given. Whether binding was seen depends on the method and setting. Some binding calls cover weakened binding; strength is not graded here.

B1: PNPase (enzyme, UniProt P05055 1-711)
chain: MLNPIVRKFQYGQHTVTLETGMMARQATAAVMVSMDDTAVFVTVVGQKKAKPGQDFFPLTVNYQERTYAAGRIPGSFFRREGRPSEGETLIARLIDRPIRPLFPEGFVNEVQVIATVVSVNPQVNPDIVAMIGASAALSLSGIPFNGPIGAARVGYINDQYVLNPTQDELKESKLDLVVAGTEAAVLMVESEAQLLSEDQMLGAVVFGHEQQQVVIQNINELVKEAGKPRWDWQPEPVNEALNARVAALAEARLSDAYRITDKQERYAQVDVIKSETIATLLAEDETLDENELGEILHAIEKNVVRSRVLAGEPRIDGREKDMIRGLDVRTGVLPRTHGSALFTRGETQALVTATLGTARDAQVLDELMGERTDTFLFHYNFPPYSVGETGMVGSPKRREIGHGRLAKRGVLAVMPDMDKFPYTVRVVSEITESNGSSSMASVCGASLALMDAGVPIKAAVAGIAMGLVKEGDNYVVLSDILGDEDHLGDMDFKVAGSRDGISALQMDIKIEGITKEIMQVALNQAKGARLHILGVMEQAINAPRGDISEFAPRIHTIKINPDKIKDVIGKGGSVIRALTEETGTTIEIEDDGTVKIAATDGEKAKHAIRRIEEITAEIEVGRVYTGKVTRIVDFGAFVAIGGGKEGLVHISQIADKRVEKVTDYLQMGQEVPVKVLEVDRQGRIRLSIKEATEQSQPAAAPEAPAAEQGE
B2: YicC (protein, UniProt P23839 1-287)
chain: MIRSMTAYARREIKGEWGSATWEMRSVNQRYLETYFRLPEQFRSLEPVVRERIRSRLTRGKVECTLRYEPDVSAQGELILNEKLAKQLVTAANWVKMQSDEGEINPVDILRWPGVMAAQEQDLDAIAAEILAALDGTLDDFIVARETEGQALKALIEQRLEGVTAEVVKVRSHMPEILQWQRERLVAKLEDAQVQLENNRLEQELVLLAQRIDVAEELDRLEAHVKETYNILKKKEAVGRRLDFMMQEFNRESNTLASKSINAEVTNSAIELKVLIEQMREQIQNIE

Experiments:
PNPase (E. coli) = PNPase (E. coli) (UniProt P05055); assay: two-hybrid
YicC (E. coli) = YicC (E. coli) (UniProt P23839); assay: two-hybrid

Binder	binding (PNPase (E. coli))	binding (YicC (E. coli))
B1	binds	
B2		binds
